Laboratory results taken from publication PMC4728208.
No constants are given. Whether binding was seen depends on the method and setting. Binding seen in cells or lysates may run through a third protein. Some binding calls cover weakened binding; strength is not graded here.

Protein sequences, listed by entry. Tags and fused reporters are not part of them. Lines headed by an entry give the natural chain unless they say otherwise; changes in a name come on top.
UniProt P61224: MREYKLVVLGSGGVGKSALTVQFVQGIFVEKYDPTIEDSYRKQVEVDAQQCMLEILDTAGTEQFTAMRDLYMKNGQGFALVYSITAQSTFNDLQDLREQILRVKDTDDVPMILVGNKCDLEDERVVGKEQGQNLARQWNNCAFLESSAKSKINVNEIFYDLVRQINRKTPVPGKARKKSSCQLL
UniProt P46940: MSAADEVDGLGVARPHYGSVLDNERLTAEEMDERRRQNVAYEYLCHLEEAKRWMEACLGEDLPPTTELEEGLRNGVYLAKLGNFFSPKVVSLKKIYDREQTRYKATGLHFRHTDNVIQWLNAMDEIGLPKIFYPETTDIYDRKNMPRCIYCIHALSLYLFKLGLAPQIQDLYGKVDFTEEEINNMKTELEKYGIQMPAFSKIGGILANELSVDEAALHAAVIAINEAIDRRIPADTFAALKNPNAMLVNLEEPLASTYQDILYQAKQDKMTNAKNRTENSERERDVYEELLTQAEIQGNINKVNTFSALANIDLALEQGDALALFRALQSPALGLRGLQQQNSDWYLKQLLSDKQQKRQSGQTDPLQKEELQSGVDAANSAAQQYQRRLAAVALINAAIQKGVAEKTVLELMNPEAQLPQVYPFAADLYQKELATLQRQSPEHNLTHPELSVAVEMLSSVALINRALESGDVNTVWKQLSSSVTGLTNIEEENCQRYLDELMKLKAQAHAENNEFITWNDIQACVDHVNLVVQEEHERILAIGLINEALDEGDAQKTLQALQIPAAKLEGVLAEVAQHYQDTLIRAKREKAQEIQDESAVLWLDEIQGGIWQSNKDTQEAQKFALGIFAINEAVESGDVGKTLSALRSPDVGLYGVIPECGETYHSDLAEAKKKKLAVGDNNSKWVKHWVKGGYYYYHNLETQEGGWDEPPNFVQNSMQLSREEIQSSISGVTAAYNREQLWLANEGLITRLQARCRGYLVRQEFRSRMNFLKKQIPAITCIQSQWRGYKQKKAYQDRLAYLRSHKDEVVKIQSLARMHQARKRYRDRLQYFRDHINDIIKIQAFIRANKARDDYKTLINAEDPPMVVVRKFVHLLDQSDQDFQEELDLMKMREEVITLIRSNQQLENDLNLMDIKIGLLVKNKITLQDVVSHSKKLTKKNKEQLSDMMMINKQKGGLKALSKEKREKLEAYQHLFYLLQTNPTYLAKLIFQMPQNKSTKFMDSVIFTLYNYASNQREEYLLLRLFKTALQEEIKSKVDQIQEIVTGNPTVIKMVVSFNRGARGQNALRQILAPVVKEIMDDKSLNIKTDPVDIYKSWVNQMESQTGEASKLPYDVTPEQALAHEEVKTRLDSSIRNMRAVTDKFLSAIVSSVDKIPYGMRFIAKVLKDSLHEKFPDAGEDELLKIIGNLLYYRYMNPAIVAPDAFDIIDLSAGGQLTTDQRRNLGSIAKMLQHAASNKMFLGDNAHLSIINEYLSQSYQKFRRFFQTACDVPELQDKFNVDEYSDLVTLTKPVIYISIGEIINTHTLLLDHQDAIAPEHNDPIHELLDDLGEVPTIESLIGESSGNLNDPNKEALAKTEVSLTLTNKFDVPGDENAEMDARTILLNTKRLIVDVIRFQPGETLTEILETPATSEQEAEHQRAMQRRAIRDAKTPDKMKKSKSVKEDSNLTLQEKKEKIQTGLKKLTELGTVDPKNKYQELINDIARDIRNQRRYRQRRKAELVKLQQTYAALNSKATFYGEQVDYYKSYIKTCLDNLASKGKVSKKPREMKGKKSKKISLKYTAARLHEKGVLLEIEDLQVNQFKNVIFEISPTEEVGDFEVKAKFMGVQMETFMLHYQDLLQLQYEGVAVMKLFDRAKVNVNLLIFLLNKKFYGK
UniProt P17301: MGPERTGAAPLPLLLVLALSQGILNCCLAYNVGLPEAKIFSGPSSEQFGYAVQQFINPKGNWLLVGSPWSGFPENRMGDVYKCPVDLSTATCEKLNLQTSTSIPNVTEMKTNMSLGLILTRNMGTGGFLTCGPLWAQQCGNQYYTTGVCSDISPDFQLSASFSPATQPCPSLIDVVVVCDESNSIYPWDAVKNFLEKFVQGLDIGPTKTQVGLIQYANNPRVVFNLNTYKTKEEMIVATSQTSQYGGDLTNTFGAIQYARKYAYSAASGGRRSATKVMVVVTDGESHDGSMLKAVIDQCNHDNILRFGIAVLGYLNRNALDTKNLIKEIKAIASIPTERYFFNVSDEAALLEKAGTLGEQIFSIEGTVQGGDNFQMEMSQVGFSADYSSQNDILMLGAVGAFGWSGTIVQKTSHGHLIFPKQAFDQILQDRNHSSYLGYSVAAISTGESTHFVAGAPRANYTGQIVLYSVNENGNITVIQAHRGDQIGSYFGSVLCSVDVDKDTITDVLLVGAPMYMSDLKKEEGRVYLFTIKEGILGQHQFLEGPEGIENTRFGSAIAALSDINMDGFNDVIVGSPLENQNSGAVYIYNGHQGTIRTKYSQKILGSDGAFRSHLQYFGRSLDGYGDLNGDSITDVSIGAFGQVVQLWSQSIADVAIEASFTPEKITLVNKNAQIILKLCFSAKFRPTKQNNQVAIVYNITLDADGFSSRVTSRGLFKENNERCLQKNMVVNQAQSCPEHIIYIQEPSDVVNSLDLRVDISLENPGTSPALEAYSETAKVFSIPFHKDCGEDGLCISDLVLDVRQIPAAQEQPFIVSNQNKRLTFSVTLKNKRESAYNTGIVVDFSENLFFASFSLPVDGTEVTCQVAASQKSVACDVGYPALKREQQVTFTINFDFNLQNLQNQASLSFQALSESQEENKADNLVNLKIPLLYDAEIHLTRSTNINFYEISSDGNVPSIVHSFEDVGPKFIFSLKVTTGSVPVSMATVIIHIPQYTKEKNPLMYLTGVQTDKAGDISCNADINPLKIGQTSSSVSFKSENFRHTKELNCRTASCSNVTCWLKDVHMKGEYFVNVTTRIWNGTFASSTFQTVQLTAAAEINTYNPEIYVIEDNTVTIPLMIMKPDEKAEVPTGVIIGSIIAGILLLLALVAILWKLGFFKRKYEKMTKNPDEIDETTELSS
UniProt Q9Y5S2: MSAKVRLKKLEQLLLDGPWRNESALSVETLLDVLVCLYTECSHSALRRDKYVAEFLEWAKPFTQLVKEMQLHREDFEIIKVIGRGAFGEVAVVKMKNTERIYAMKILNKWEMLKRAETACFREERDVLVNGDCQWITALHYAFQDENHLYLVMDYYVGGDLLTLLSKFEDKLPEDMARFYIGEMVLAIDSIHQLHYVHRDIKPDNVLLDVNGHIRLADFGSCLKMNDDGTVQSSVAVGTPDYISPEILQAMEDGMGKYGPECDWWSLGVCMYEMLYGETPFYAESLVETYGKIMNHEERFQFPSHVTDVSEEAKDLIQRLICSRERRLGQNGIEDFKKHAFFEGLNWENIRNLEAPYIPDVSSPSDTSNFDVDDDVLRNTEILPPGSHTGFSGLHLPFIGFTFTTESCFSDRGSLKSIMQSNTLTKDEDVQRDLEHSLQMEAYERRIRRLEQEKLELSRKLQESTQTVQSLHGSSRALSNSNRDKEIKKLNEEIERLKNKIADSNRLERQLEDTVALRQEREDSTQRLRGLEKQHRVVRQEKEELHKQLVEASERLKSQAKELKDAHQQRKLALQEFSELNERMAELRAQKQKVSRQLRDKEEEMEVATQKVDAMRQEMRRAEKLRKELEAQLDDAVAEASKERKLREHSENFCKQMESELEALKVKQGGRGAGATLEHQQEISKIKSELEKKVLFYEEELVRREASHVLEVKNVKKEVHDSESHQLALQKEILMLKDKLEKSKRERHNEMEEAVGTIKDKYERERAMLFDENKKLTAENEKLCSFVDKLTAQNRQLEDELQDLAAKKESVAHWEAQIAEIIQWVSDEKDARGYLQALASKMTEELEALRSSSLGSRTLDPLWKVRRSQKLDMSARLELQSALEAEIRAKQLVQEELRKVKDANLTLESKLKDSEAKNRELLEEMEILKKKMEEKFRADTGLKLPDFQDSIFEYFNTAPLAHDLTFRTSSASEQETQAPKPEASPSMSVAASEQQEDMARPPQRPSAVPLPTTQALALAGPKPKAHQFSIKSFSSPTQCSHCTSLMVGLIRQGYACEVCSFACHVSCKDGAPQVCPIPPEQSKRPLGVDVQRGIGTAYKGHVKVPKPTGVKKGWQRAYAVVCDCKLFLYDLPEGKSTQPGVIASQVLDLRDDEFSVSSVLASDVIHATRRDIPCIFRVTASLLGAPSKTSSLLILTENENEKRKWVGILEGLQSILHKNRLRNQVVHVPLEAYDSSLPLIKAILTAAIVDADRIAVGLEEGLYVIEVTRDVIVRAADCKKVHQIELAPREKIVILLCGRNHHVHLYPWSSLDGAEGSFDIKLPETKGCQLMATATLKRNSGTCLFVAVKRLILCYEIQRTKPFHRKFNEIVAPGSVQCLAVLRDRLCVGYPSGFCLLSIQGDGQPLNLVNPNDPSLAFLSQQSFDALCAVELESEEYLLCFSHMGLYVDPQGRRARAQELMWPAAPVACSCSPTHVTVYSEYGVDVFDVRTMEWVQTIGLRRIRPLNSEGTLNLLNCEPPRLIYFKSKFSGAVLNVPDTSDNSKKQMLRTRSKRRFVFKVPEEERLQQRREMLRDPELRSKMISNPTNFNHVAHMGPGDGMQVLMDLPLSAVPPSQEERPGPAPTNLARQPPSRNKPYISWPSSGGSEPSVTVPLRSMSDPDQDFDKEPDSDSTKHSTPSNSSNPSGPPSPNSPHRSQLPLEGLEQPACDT

What was measured:
[1] = molecular target: S-epitope tagged mCherry-Cdc42 fusion protein (UniProt P60953); assay: pull-down; S-epitope tagged mCherry-GTPases expressed in ECs in 3D collagen matrices (0-16 hr; with or without increased PKCɛ expression); lysates in 1% Triton X-100, 10 mM Tris pH 7.5, 150 mM NaCl, 1 mM DTT, MgCl2 (or MgCl2 and CaCl2), 100 μM GTPγS; S-protein agarose 1 hour at 4°C, 4 washes; bound proteins detected by western blot
[2] = molecular target: S-epitope tagged mCherry-Rap1b fusion protein (UniProt P61224); assay: as above

| binding [1] | binding [2] | Substance |
| --- | --- | --- |
| binds | no binding | IQGAP1 (from UniProt P46940 1-1657) |
| binds weakly |  | α2β1 integrin (from UniProt P17301 30-1181; P05556 21-798) (complex) |
| binds |  | MRCKβ (from UniProt Q9Y5S2 1-1711) (enzyme) |
